Reference: patent US20080213860
Positions count from the first letter of the chain named. For at least one entry, the source does not settle the construct or the ends of the probe. Protein sequences can lack the tags named with them.

How the values were obtained:
Assay in all cases: enzyme reaction in vitro
Settings in all cases: ds-DNA cleavage; protein in an extract; only the site is given
[1] = test system: T1, BsmI R153D (Bacillus stearothermophilus NUB36)
T1 sequence: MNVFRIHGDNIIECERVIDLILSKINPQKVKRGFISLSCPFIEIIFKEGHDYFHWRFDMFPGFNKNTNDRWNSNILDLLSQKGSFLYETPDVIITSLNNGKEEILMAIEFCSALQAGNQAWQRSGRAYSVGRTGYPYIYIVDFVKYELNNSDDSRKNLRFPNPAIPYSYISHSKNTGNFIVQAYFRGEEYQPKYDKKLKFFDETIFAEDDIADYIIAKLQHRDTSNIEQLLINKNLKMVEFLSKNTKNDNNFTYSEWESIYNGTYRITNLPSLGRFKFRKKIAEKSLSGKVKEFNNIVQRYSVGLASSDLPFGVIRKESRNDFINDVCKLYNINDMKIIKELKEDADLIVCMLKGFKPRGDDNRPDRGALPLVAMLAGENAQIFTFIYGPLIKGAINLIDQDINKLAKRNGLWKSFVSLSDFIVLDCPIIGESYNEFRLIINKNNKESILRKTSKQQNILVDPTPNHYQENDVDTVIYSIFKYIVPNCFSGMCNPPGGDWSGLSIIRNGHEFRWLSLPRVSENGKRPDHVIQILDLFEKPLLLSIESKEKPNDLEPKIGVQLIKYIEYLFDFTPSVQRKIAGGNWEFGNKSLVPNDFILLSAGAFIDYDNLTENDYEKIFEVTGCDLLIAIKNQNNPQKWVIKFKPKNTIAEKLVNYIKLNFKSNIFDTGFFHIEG

[2] = test system: T2, BsmI R316D (Bacillus stearothermophilus NUB36)
T2 sequence: T1 sequence with D153R, R316D

[3] = test system: T3, BsmI R451D (Bacillus stearothermophilus NUB36)
T3 sequence: T1 sequence with D153R, R451D

[4] = test system: T4, BsmI R513D (Bacillus stearothermophilus NUB36)
T4 sequence: T1 sequence with D153R, R513D

Measured: activity on this sequence

GCATTC [pBR322 supercoiled plasmid (one BsmI site)]
active: all assays above
